Taken from: PubChem BioAssay AID1259424 (University of Nebraska Medical Center, 2018)
The deposit covers about 14,000 reagents; shown is a random part of them. 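Higher correlation or smaller distance means closer resemblance to KSR1 loss; control wells, including KSR1 knockdowns, recur on many plates.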 A reagent listed more than once was tested more than once; the source does not tell the runs apart. Not all columns of the deposit are shown. Not stated in the record: the time to read-out.

Aim: 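Find knockdowns that reproduce the expression shifts seen after KSR1 loss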 (primary screen)
Cells: human HCT116 colon cancer cells
Reagents: siRNA pool against human genes, 50 nM
Detection: 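Six signature mRNAs by branched-DNA multiplex assay, scaled to two housekeeping genes and non-targeting median, log2; matched to mean KSR1 knockdown profile by Pearson correlation and euclidean distance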
Scale: mean correlation with KSR1 profile and KSR1 correlation: higher = expression change more like KSR1 knockdown; mean distance from KSR1 profile: higher = expression change less like KSR1 knockdown

mean correlation with KSR1 profile,mean distance from KSR1 profile,"KSR1 correlation, replicate 1","KSR1 correlation, replicate 2",Target gene
-0.172,2.14,0.0601,-0.393,EID1 (EP300 interacting inhibitor of differentiation 1)
0.248,1.82,-0.222,0.532,UFM1 (ubiquitin fold modifier 1)
-0.537,2.25,-0.667,-0.511,STK11IP (serine/threonine kinase 11 interacting protein)
-0.265,2.9,-0.429,-0.115,SEMA5B (semaphorin 5B)
0.376,2.82,0.254,0.419,WDR75 (WD repeat domain 75)
-0.243,2.15,-0.225,0.102,TANC2
-0.123,2.14,-0.00309,-0.302,FTL (ferritin light chain)
-0.0344,1.9,0.0037,0.0124,HOMER3 (homer scaffold protein 3)
0.246,2.94,0.0691,0.315,POP5 (POP5 ribonuclease P/MRP subunit)
-0.42,1.45,-0.424,-0.458,BRD4 (bromodomain containing 4)
-0.0249,2.27,-0.22,0.0158,RAD51AP1 (RAD51 associated protein 1)
0.607,1.29,0.544,0.577,GMEB1 (glucocorticoid modulatory element binding protein 1)
-0.623,1.74,-0.757,-0.222,PNPLA4
0.145,2.57,-0.0391,0.0855,EAPP (E2F associated phosphoprotein)
0.513,1.57,0.683,0.417,TTBK1 (tau tubulin kinase 1)
0.661,1.73,0.653,0.51,KBTBD7 (kelch repeat and BTB domain containing 7)
0.00426,3.1,0.075,-0.273,KBTBD7 (kelch repeat and BTB domain containing 7)
-0.43,1.55,-0.359,-0.626,SCAF11 (SR-related CTD associated factor 11)
0.674,1.96,0.787,0.624,POLL (DNA polymerase lambda)
-0.365,3,-0.454,-0.233,CLCN7 (Cl-/H+ antiporter 7)
-0.718,4.59,-0.734,-0.524,C8orf17 (chromosome 8 putative open reading frame 17)
-0.131,2.68,0.00531,-0.219,TNFRSF14 (TNF receptor superfamily member 14)
-0.458,1.65,-0.415,-0.238,RPS9 (ribosomal protein S9)
0.691,1.36,0.429,0.589,DTX1 (deltex E3 ubiquitin ligase 1)
0.0654,1.38,0.0514,-0.137,MBD3L1 (methyl-CpG binding domain protein 3 like 1)
0.456,1.59,0.233,0.256,OSBP (oxysterol binding protein)
0.766,3.46,0.568,0.797,DRC9 (dynein regulatory complex subunit 9)
0.135,1.45,-0.0331,-0.0363,KLHL7 (kelch like family member 7)
-0.169,1.94,-0.204,0.076,ACRBP (acrosin binding protein)
0.234,1.78,0.259,0.255,TRPM5
-0.557,4.45,-0.518,-0.554,MEAK7 (MTOR associated protein MEAK7)
0.0793,3.02,-0.0914,0.158,CSAD (cysteine sulfinic acid decarboxylase)
0.0127,2.18,0.0806,0.114,PSD4 (pleckstrin and Sec7 domain containing 4)
-0.35,2.19,-0.445,-0.403,DPYSL3 (dihydropyrimidinase like 3)
-0.499,2.77,-0.37,-0.527,DGCR8 (DGCR8 microprocessor complex subunit)
-0.341,2.63,-0.054,-0.413,ZNF141 (zinc finger protein 141)
-0.288,2.06,-0.405,-0.0524,SDC3 (syndecan 3)
-0.252,1.92,-0.255,-0.394,ANAPC15 (anaphase promoting complex subunit 15)
0.275,2.25,0.288,0.349,RIN3 (Ras and Rab interactor 3)
-0.451,2.04,-0.408,-0.243,PIGP (phosphatidylinositol glycan anchor biosynthesis class P)
-0.308,1.22,-0.367,-0.739,ZSCAN31 (zinc finger and SCAN domain containing 31)
-0.309,1.66,-0.339,-0.461,PCNP (PEST proteolytic signal containing nuclear protein)
0.248,1.63,0.513,0.036,ARHGDIA (Rho GDP dissociation inhibitor alpha)
0.182,1.79,0.177,0.129,APOBEC3G (apolipoprotein B mRNA editing enzyme catalytic subunit 3G)
-0.186,2.25,-0.279,-0.348,GAGE6 (G antigen 6)
-0.368,2.86,-0.257,-0.23,RSAD1 (radical S-adenosyl methionine domain containing 1)
0.788,1.65,0.861,0.705,CHRM1 (cholinergic receptor muscarinic 1)
-0.43,4.52,-0.219,-0.393,MAP3K11 (mitogen-activated protein kinase kinase kinase 11)
0.265,0.817,0.539,0.0699,DNAJC7 (DnaJ heat shock protein family (Hsp40) member C7)
-0.168,2.42,-0.197,-0.446,HHAT (hedgehog acyltransferase)
-0.762,2.67,-0.821,-0.832,NYX (nyctalopin)
0.349,1.33,-0.518,0.242,ULBP1 (UL16 binding protein 1)
-0.17,3.6,-0.0388,-0.0969,GALNT8 (polypeptide N-acetylgalactosaminyltransferase 8)
0.0308,2.6,-0.43,-0.411,FOXJ2 (forkhead box J2)
0.245,1.39,0.317,0.366,PDLIM7 (PDZ and LIM domain 7)
0.236,1.43,0.319,0.028,CLEC1A (C-type lectin domain family 1 member A)
-0.45,1.21,-0.706,0.0296,CRIPT (CXXC repeat containing interactor of PDZ3 domain)
0.575,1.55,0.731,0.377,MNDA (myeloid cell nuclear differentiation antigen)
0.322,1.23,-0.145,0.525,"PRG3 (proteoglycan 3, pro eosinophil major basic protein 2)"
-0.218,3.26,-0.316,-0.218,FERMT2 (FERM domain containing kindlin 2)
-0.0199,2.47,-0.0614,-0.175,KCNS1
-0.43,1.81,-0.429,-0.498,RANBP9 (RAN binding protein 9)
0.429,1.74,0.494,0.293,MTMR9 (myotubularin related protein 9)

11 successive reagents from above, quoted:
mean correlation with KSR1 profile,mean distance from KSR1 profile,"KSR1 correlation, replicate 1","KSR1 correlation, replicate 2",Target gene
-0.43,1.55,-0.359,-0.626,SCAF11 (SR-related CTD associated factor 11)
0.674,1.96,0.787,0.624,POLL (DNA polymerase lambda)
-0.365,3,-0.454,-0.233,CLCN7 (Cl-/H+ antiporter 7)
-0.718,4.59,-0.734,-0.524,C8orf17 (chromosome 8 putative open reading frame 17)
-0.131,2.68,0.00531,-0.219,TNFRSF14 (TNF receptor superfamily member 14)
-0.458,1.65,-0.415,-0.238,RPS9 (ribosomal protein S9)
0.691,1.36,0.429,0.589,DTX1 (deltex E3 ubiquitin ligase 1)
0.0654,1.38,0.0514,-0.137,MBD3L1 (methyl-CpG binding domain protein 3 like 1)
0.456,1.59,0.233,0.256,OSBP (oxysterol binding protein)
0.766,3.46,0.568,0.797,DRC9 (dynein regulatory complex subunit 9)
0.135,1.45,-0.0331,-0.0363,KLHL7 (kelch like family member 7)
